From PubChem BioAssay AID2685 (National Center for Advancing Translational Sciences (NCATS), 2010)
The other results are listed elsewhere or left out. Further columns of the screen follow, without active or inactive calls. Most of these compounds were active or inconclusive in the main read-out, so they are no random draw. Words in brackets tell the shape of the fitted curve; partial curves, single points and poor fits give uncertain potencies.

Assay: qHTS Assay for Lipid Storage Modulators in Drosophila S3 Cells;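 on cell number change: cells counted by Cell Tracker Red CMTPX staining in the red channel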
Conditions: BODIPY lipid droplet fluorescence, 18-24 h; for cell number change: measured here: cell count max response, cells fed with added oleic acid
Summary of the method: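 Laser-scanning cytometry quantifies lipid droplet accumulation (500–530 nm total intensity; droplet/cell object ratio) in oleic acid-fed (400 uM added) Drosophila S3 cells treated with a concentration series. 20 uM Triacsin C defined 100% inhibition.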

[1] = measured here: lipid fluorescence (Fed channel) AC50, cells fed with added oleic acid
[2] = measured here: cell number channel AC50, cells fed with added oleic acid

Compound | AC50 [1] | cell number change [%] | AC50 [2]
Cc1ccc(NC(=O)c2ccc(Cn3cc(Cl)cn3)o2)c(C)c1 | 29.1 µM [falling, single point] |  | 
O=C(COC(=O)CNC(=O)c1ccccc1F)NCC(F)(F)F |  | -6.95 | 0.461 µM [falling, single point]
COC(=O)c1ccc(NC(=O)COc2coc(CN3CCc4ccccc43)cc2=O)cc1 |  | -13.8 | 0.146 µM [falling, full curve, poor fit]
O=C(NCCS(=O)(=O)N1CCN(c2ccc(F)cc2)CC1)C12CC3CC(CC(C3)C1)C2 | 2.91 µM [rising, single point] | 0.346 | 
CCCc1nnc(NC(=O)COC(=O)c2cc(C)nc3ccccc23)s1 | 0.92 µM [rising, full curve, poor fit] | -7.03 | 
O=C(NCC1CCCO1)c1cccc(F)c1 (stereo unspecified) | 18.4 µM [rising, single point] | 1.38 | 
FC(F)(F)c1nnc(-c2ccccc2)nc1Sc1ccc(Cl)cc1 | 29.1 µM [falling, single point] | -80 | 8.2 µM [falling, partial curve]
CC(C)N1CCc2c(sc(NC(=O)Cc3ccccc3)c2C(N)=O)C1 |  | -9.8 | 
CCN1C(=O)c2cccc3c(NC(=O)c4ccc(S(=O)(=O)N5CCOCC5)cc4)ccc1c23 | 1.84 µM [rising, partial curve] | -11.4 | 
Cc1cc(Oc2ccc(Cl)cc2)nc(-c2ccccc2O)n1 | 1.03 µM [rising, partial curve] |  | 0.116 µM [rising, full curve, poor fit]
CCc1cc(C)cc(OCCNC(=O)c2cncc(Br)c2)c1 | 2.31 µM [rising, partial curve] |  | 1.16 µM [rising, full curve]
O=c1[nH]c(-c2ccccc2)c(-c2ccccc2)nc1[N+](=O)[O-] | 29.1 µM [falling, single point] | -4.5 | 
COc1ccc(C(=O)N[C@H](C(=O)Nc2sccc2C(N)=O)C(C)C)cc1 | 6.51 µM [rising, single point] | 7.14 | 6.51 µM [rising, single point]
CCOC(=O)C(C)Oc1ccc(C2NC(=O)NC(C)=C2C(C)=O)cc1Br (stereo unspecified) | 0.92 µM [falling, full curve, poor fit] | 12.8 | 
COC(=O)Cn1c(CN2CCN(C(=O)c3ccco3)CC2)nc2c1c(=O)n(C)c(=O)n2C |  | 19.5 | 
CN(Cc1nc(-c2cnccn2)no1)Cc1n[nH]c2c1CCCCC2 |  | -12.4 | 
CC(C)c1nc(SCc2ccccn2)c2c(=O)n(C)c(=O)n(C)c2n1 | 6.51 µM [rising, single point] |  | 
CC1(c2ccccc2)NC(=O)N(CC(=O)Nc2cccc(C#N)c2)C1=O (stereo unspecified) | 3.26 µM [rising, full curve, poor fit] | -17.6 | 
O=C(NCCn1cc(SCc2ccc(F)cc2)c2ccccc21)c1c(F)cccc1F | 1.84 µM [rising, partial curve] | -21.4 | 
Cn1nc(C(=O)OCc2ccccc2F)c2ccccc2c1=O | 1.3 µM [rising, full curve] |  | 1.64 µM [rising, partial curve]

Among those listed so far, these contain a furan ring, fused or not.
Compound | AC50 [1] | cell number change [%] | AC50 [2]
Cc1ccc(NC(=O)c2ccc(Cn3cc(Cl)cn3)o2)c(C)c1 | 29.1 µM [falling, single point] |  | 
COC(=O)Cn1c(CN2CCN(C(=O)c3ccco3)CC2)nc2c1c(=O)n(C)c(=O)n2C |  | 19.5 | 

2 compounds picked at random from the list so far, as already listed:
Compound | AC50 [1] | cell number change [%] | AC50 [2]
COc1ccc(C(=O)N[C@H](C(=O)Nc2sccc2C(N)=O)C(C)C)cc1 | 6.51 µM [rising, single point] | 7.14 | 6.51 µM [rising, single point]
CCc1cc(C)cc(OCCNC(=O)c2cncc(Br)c2)c1 | 2.31 µM [rising, partial curve] |  | 1.16 µM [rising, full curve]

Remaining list, next part.

Compound | AC50 [1] | cell number change [%] | AC50 [2]
COC(=O)C1C(c2ccccc2)C(C(=O)OCc2ccco2)C1c1ccccc1 (stereo unspecified) | 23.1 µM [falling, partial curve] | -34.1 | 16.4 µM [falling, partial curve, poor fit]
CC(OC(=O)CCCSc1nc2ccccc2s1)C(=O)NC(N)=O (stereo unspecified) | 3.66 µM [falling, partial curve] | -7.33 | 
CC1CCN(S(=O)(=O)c2cccc(C(=O)NCc3cccs3)c2)CC1 | 29.1 µM [rising, single point] | 10.5 | 
O=C(CNc1cccc(F)c1)Nc1cccc(S(=O)(=O)N2CCCCC2)c1 |  | -2.97 | 
COCCn1c(SCC(=O)Nc2cccc(OC)c2)nnc1-c1ccccc1 | 0.82 µM [rising, single point] | 76.3 | 20.6 µM [rising, single point]
Cc1ccc(-c2nn(C)c(=O)c3ccccc23)cc1CNC(=O)Cn1nc(-c2ccccc2)c2ccccc2c1=O |  | -1.61 | 
Cc1ccc(Nc2nc(N)nc(CSc3ncccn3)n2)cc1 | 0.517 µM [rising, full curve] | 13.4 | 
CCCC(=O)Nc1cc(C(=O)O)ccc1S(=O)(=O)c1ccc(C)cc1 | 20.6 µM [falling, partial curve] | 15.6 | 
O=C(Cn1c(-c2ccccc2)noc1=O)Nc1ccc(S(=O)(=O)N2CCOCC2)cc1 |  | -10.5 | 
COc1ccc(-c2cc(C(F)(F)F)nc(-n3cc(Br)cn3)n2)cc1 |  |  | 1.03 µM [rising, partial curve]
COCCn1c(SC(C)C(=O)Nc2ncc(Cl)cc2Cl)nc2ccccc21 (stereo unspecified) | 3.26 µM [rising, partial curve] |  | 2.31 µM [rising, single point]
COc1ccc(C(C(N)=O)c2ncc(C(F)(F)F)cc2Cl)cc1OC (stereo unspecified) |  | -31 | 
CCCCCOc1ccc(Cn2ccnc2)cc1[N+](=O)[O-] |  | -41.2 | 29.1 µM [falling, single point]
CCOC(=O)c1ccccc1NC(=O)N1CCn2c(C)ccc2C1CC (stereo unspecified) |  |  | 0.651 µM [falling, single point]
COc1ccc(CC(=O)Nc2c3c(nn2-c2cccc(Cl)c2)CS(=O)(=O)C3)cc1 | 1.16 µM [rising, full curve] |  | 3.66 µM [rising, partial curve]
Cc1nc(CCNS(=O)(=O)c2cccnc2)cs1 | 20.6 µM [rising, single point] | 29.1 | 
COC(=O)c1ccc(CSc2nc(C(F)(F)F)c3c(c2C#N)CCC3)o1 |  | 3.16 | 
COc1ccc(NC(=S)N2CCN(c3ccccn3)CC2)cc1 | 2.91 µM [rising, partial curve] | 10.6 | 
CCOc1ccc(N2CC(NC(=O)c3ccc4ccccc4c3)CC2=O)cc1 (stereo unspecified) | 0.58 µM [falling, single point] | -51.5 | 4.61 µM [falling, single point]
